Results from patent US20180011102A1, “THE PROTEIN KINASE ACTIVITY OF PHOSPHOGLYCERATE KINASE 1 AS A TARGET FOR CANCER TREATMENT AND DIAGNOSIS” (Board of Regents, The University of Texas System, priority 2015, published 2018).
At least one compound was matched to its structure with a doubt left.

Test system: U87/EGFR cells
Assay: Measurement of oxygen-consumption rate (mitochondrial OCR)
Type: cell-based, human
Conditions: DCA 5 mM for 1 h before EGF 100 ng/ml 6 h

O=C(O)C(Cl)Cl [dichloroacetate]
EGF-suppressed oxygen consumption rate (OCR): alleviated
